No constants are given. Whether binding was seen depends on the method and setting. In cells and extracts the contact can be indirect. Some results given as binding are weak or reduced against the parent protein; the word gives no strength.

Amino acid sequences for entries named in this document (tags omitted).
UniProt Q9GZV5: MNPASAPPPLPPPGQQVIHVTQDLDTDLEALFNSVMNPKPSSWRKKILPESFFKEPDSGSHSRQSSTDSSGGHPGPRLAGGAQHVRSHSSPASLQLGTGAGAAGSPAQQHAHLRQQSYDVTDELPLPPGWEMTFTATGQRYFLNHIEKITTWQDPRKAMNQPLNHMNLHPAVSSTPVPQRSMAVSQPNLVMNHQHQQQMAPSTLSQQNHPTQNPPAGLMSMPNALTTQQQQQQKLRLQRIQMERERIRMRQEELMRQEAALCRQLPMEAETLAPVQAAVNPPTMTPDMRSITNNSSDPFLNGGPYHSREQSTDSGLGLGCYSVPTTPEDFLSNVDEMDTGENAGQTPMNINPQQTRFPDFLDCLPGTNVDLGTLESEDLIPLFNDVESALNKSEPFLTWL
UniProt Q13950: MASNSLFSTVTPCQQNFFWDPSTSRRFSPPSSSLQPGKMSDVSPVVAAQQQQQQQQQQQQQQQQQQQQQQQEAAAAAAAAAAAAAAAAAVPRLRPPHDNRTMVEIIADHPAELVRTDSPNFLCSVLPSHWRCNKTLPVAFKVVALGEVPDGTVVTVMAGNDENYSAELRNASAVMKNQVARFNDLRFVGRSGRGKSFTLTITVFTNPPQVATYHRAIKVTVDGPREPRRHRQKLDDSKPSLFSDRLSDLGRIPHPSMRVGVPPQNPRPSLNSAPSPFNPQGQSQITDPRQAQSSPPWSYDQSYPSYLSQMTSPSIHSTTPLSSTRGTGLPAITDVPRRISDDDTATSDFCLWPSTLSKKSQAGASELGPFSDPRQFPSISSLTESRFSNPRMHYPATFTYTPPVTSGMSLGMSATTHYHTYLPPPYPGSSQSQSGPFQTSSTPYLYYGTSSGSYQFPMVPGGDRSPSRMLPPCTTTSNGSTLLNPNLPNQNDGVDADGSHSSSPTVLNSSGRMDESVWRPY

The record followed here is paper PMC5842656.

The target of assay [1] is Transcriptional coactivator with PDZ-binding motif (TAZ), exogenous, overexpressed in HEK293T cells (human) (UniProt Q9GZV5). The assay is described as follows: co-IP; lysates of HEK293T cells infected with TAZ-overexpressing lentiviral particles, with or without TM-25659 (10 μM, 24 h); immunoprecipitated with a TAZ antibody or an IgG; Runx2 detected by Western blot; Pierce Co-Immunoprecipitation Kit.

The target in assay [2] is Transcriptional coactivator with PDZ-binding motif (TAZ), endogenous in human adipose-derived stem cells (human (endogenous in ADSCs)) (UniProt Q9GZV5). The assay is described as follows: co-IP; lysates of ADSCs treated with osteoinductive medium with or without TM-25659 (10 μM); immunoprecipitated with a TAZ antibody or an IgG; Runx2 detected by Western blot; Pierce Co-Immunoprecipitation Kit. On the technique in general: Immunoblotting shows a protein as a band on a membrane.

Take “Runt-related transcription factor 2 (Runx2), endogenous in HEK293T cells (from UniProt Q13950 1-521)”: the binding result in assay [1] is “binds”.

Turning to “Runt-related transcription factor 2 (Runx2), endogenous in human adipose-derived stem cells (from UniProt Q13950 1-521)”, the binding result in assay [2] is on record as “binds”.
